In the supplement of paper PMC5949888:
± gives the standard deviation of the averaged measurements. Most values lie at the floor of the assay. Slopes are relative: functional sequences can read slightly below zero.

What follows are substances tested on Saccharomyces cerevisiae PS128 hsf1 delta, HSF1(1-493) fusion (assay: growth estimate (transactivation domain function in HSF1 fusion, heat-shock survival) (a.u. (slope of normalised read count over time)); higher = stronger growth at 37°C, i.e. more transactivation activity). Details: library: random library.

Substance | growth estimate
RSFFYYRTERVRI | < -0.25
RSGRSKRGKILQGAWF | < -0.25
RSGSDVLRSVLGLWYLV | < -0.25
RSGT | < -0.25
RSGVSAD | -0.246
RSHGLPGLLGLANTEPKAIA | < -0.25
RSHYTLDGLK | < -0.25
RSI | < -0.25
RSIAIQCGRRVPRVLGMSAR | < -0.25
RSICRLKRKEKDRDPGCEGA | < -0.25
RSIEPD | < -0.25
RSIFYVWVAIALRP | < -0.25
RSIKTRFF | < -0.25
RSILLDLTPL | < -0.25
RSIR | < -0.25
RSKCVQVKLVMSRVGVGRIF | < -0.25
RSKDHGSTKGR | < -0.25
RSKGRA | < -0.25
RSL | < -0.25
RSLCTMIGIFVVH | < -0.25
RSLLAQVRRHCRWCQEYRRL | < -0.25
RSLLNALGAYSCIPCHSSGK | < -0.25
RSLRFGLLNHWRIPKG | < -0.25
RSLRISTIVGRNGSSEYSIK | < -0.25
RSLRRDVLVILANGSRRESS | < -0.25

Substance | growth estimate
RSLSLTMASYCTTGPIR | < -0.25
RSLSRRHGQGNVRSYS | < -0.25
RSLVAEGEG | < -0.25
RSLVEWKPNSRCCMLESRRS | < -0.25
RSLVGTTLDCAKGQQFEIRF | < -0.25
RSNSLVKTSIWCGA | < -0.25
RSPDRVLAKSVRRSVGW | < -0.25
RSPFDAVILMRNRTHGVSHI | < -0.25
RSPGTFDDRPKSDLG | < -0.25
RSPPNRVWCHELQHLSFAFA | < -0.25
RSQDRLYGCAQQRRLGVPTQ | < -0.25
RSQILCYWTE | < -0.25
RSQLGV | < -0.25
RSRFSFQRKVLCCAVLNVEP | < -0.25
RSRGPEQSGFAVRIGPMRSG | < -0.25
RSRHWAGMHRLSVTRALDSN | < -0.25
RSRKGGRVATRWMWTQGHNR | < -0.25
RSRKN | < -0.25
RSRRGNPFTNIR | < -0.25
RSRRGVSYFVARSTSRLRLP | < -0.25
RSRRMRQCMGDLCGWASNEG | < -0.25
RSRSKRRTTRMVLSELCQMA | < -0.25
RSRSTRKCLSPCANLGRSHD | < -0.25
RSSEWLSEL | < -0.25
RSSHGLLRDTIRN | -0.25

Substance | growth estimate
RSSHGRVPVSLCLLEGY | < -0.25
RSSLMWLNGINHSVRRPIWS | < -0.25
RSSRENGIESFTIRQSWARL | < -0.25
RSSREVSHKL | < -0.25
RSSVTLCRKSALLSSQVTEQ | < -0.25
RSTCRI | < -0.25
RSTEMLDFSAELRNEGKKFL | < -0.25
RSTFTAR | < -0.25
RSTG | -0.239
RSTGVELYSLISTCL | < -0.25
RSTIANYRSLRRRRKLGGSA | < -0.25
RSTRTDKLARASFRILLTLW | < -0.25
RSTSA | < -0.25
RSV | < -0.25
RSVCCDHDVIKRQAIWF | < -0.25
RSVHT | < -0.25
RSVHVLGPRRIQRPAPSRRC | < -0.25
RSVL | < -0.25
RSVLAPEHQVNSR | < -0.25
RSVRCWLHAGMFVTRGYGS | < -0.25
RSVTGLGPGPNHPWRWAPGR | < -0.25
RSVTIWYMQGDADGGRDPDG | < -0.25
RSVVLQ | < -0.25
RSWHPSGDKTRVTTLVYPPA | < -0.25
RSWLISQPCSEITGGLDL | < -0.25

Two entries picked at random from those above, as already listed:
Substance | growth estimate
RSV | < -0.25
RSPDRVLAKSVRRSVGW | < -0.25

Next part:

Substance | growth estimate
RSWPIAPGLQQ | < -0.25
RSYARSRWRMGKYLSERAVP | < -0.25
RSYFSSRWFRMIRARSTKIA | < -0.25
RSYTIDRFGSHL | < -0.25
RTADPPLRRWPRGLGTLSPG | < -0.25
RTADPYTILQLEVGRPFCCQ | -0.245
RTAFNHRRALVYCYHAVRSW | < -0.25
RTATVSGRTCSVWQ | < -0.25
RTCFNAREANNGGSNAR | < -0.25
RTCGWVGVPTSDTALNMAFR | < -0.25
RTCHDGL | < -0.25
RTCRTCR | < -0.25
RTDIEFVLKV | < -0.25
RTDKPDIKLHRKSLA | < -0.25
RTDWECTQGHQRVPEGQRPR | < -0.25
RTEASTCTATPM | < -0.25
RTEFSSACSIRYQR | < -0.25
RTFDGWTQLPELTTG | < -0.25
RTG | < -0.253
RTGARSCCIWTVSRAVDLSP | < -0.25
RTGFFGAWHLPCQLPRTLGC | < -0.25
RTGGCWCRRSRLAGRAVDAV | < -0.25
RTGIARTAMRAGVRRRRHTG | < -0.25
RTGLRTC | < -0.25
RTGMIGLIHCDGRWVLINVR | < -0.25

Substance | growth estimate
RTGQSDRGVFSFLSPCVGST | < -0.25
RTGRSTVIGTEAQ | < -0.25
RTIS | < -0.25
RTISPHYSPCLEAVTHHVKA | -0.166
RTISSRDLQRYGRNATGNVS | < -0.25
RTIWRRQRVDSCLATGHRSG | < -0.25
RTKCLV | < -0.25
RTKFACPR | < -0.25
RTLLTRRKSMCADSDQWRST | < -0.25
RTLRV | < -0.25
RTLSCRGSRQSTSMTSGAAR | < -0.25
RTLTAAFRGHNRI | -0.231
RTMKGSSGFRAERDWPHRRR | < -0.25
RTMLALGLALKKSFCWGSGT | < -0.25
RTPGVYDFSSQDPLPSVARR | < -0.25
RTPLSQY | < -0.25
RTPSKRHRFGSCQTGQRLID | < -0.25
RTQ | < -0.25
RTQRVPEAFEGGAYCVPRAY | < -0.25
RTRHCVRDGTFGAGKSPGRT | < -0.25
RTRKDRGHIWEERSLSR | < -0.25
RTRSWYSMSIGSIGRSTISA | < -0.25
RTRVGLLIG | < -0.25
RTRVLPQLWSCLFVA | < -0.25
RTS | < -0.25

Substance | growth estimate
RTSAGDDAEKMLRREDRPQQ | < -0.25
RTSN | < -0.25
RTTPGCYITMIKVRVGWFVC | < -0.25
RTTQTFPRFSATTERQRPSG | < -0.25
RTTR | < -0.25
RTTTSGDEQIGLVVLLASTP | < -0.25
RTTVFVKAM | < -0.25
RTVCASRCREGFRRFAWMEH | < -0.25
RTVYWRPVRGRQDSWDRFLR | < -0.25
RTY | < -0.25
RTYDGGEILIVGVLKVHTRR | < -0.25
RTYEIPRRRYGEGDPGLVAS | < -0.25
RTYHVNTGGTRVQGECDRTS | < -0.25
RTYTVGGFHHDPPWIQMVGV | < -0.25
RTYWPVKATG | < -0.25
RVALT | < -0.25
RVAPRLRCHHTPCPTGCEFF | < -0.25
RVATRLVRPDHTF | < -0.25
RVAYVLRLWSSITRCHAALP | < -0.25
RVCVCGDVPWDLVI | -0.0547
RVDHPKCRFYRRYCVIIARH | < -0.25
RVDSTYLECRYAGIPRPRLG | < -0.25
RVEGHDVLGWLMALMLQRRV | < -0.25
RVEQSSKPRSASIEGPIDCN | < -0.25
RVETLARERTCRTVYGSNHP | < -0.25

Substance | growth estimate
RVFISTSSLLSALVWIPGGD | < -0.25
RVFPSYATTRIGQYLRETGG | < -0.25
RVFRGKWAIGEP | < -0.25
RVFWACALFLPRKIFRFVLR | < -0.25
RVG | < -0.25
RVGEGLTSARTDSAAQLPSA | < -0.25
RVGIICNGVKTAYKGVRERA | < -0.25
RVGKDW | < -0.25
RVGSPRSLIGV | < -0.25
RVGSRHRPL | < -0.25
RVGSSKATEASRNGTSC | < -0.25
RVGWDSSPGALTVYSHRWTP | < -0.25
RVHKSREGRINRILDCPQDA | < -0.25
RVI | -0.247 ± 0.0037
RVIAKLRLDNP | < -0.25
RVIEFGPSRR | < -0.25
RVIGPKTRTVTTGWEIVTKH | < -0.25
RVKHLAQYQNIGLFLATVKA | < -0.25
RVKKTAAQNM | < -0.25
RVKMMSESWTSRILDV | -0.0139
RVL | < -0.25
RVLDTIIGDTTRDKTVH | < -0.25
RVLFREYPRVNACYPFT | < -0.25
RVLKTCLGRDRSSREDRDSV | < -0.25
RVLMSFLTLFRPAKT | < -0.25

Given as tab-separated lines: part of the list above.
Substance	growth estimate
RTTQTFPRFSATTERQRPSG	< -0.25
RTTR	< -0.25
RTTTSGDEQIGLVVLLASTP	< -0.25
RTTVFVKAM	< -0.25
RTVCASRCREGFRRFAWMEH	< -0.25
RTVYWRPVRGRQDSWDRFLR	< -0.25
RTY	< -0.25
RTYDGGEILIVGVLKVHTRR	< -0.25
RTYEIPRRRYGEGDPGLVAS	< -0.25
RTYHVNTGGTRVQGECDRTS	< -0.25
RTYTVGGFHHDPPWIQMVGV	< -0.25
RTYWPVKATG	< -0.25
RVALT	< -0.25
RVAPRLRCHHTPCPTGCEFF	< -0.25
RVATRLVRPDHTF	< -0.25
RVAYVLRLWSSITRCHAALP	< -0.25
RVCVCGDVPWDLVI	-0.0547
RVDHPKCRFYRRYCVIIARH	< -0.25
RVDSTYLECRYAGIPRPRLG	< -0.25
RVEGHDVLGWLMALMLQRRV	< -0.25
RVEQSSKPRSASIEGPIDCN	< -0.25
RVETLARERTCRTVYGSNHP	< -0.25
RVFISTSSLLSALVWIPGGD	< -0.25
RVFPSYATTRIGQYLRETGG	< -0.25
RVFRGKWAIGEP	< -0.25
RVFWACALFLPRKIFRFVLR	< -0.25
RVG	< -0.25
RVGEGLTSARTDSAAQLPSA	< -0.25
RVGIICNGVKTAYKGVRERA	< -0.25
RVGKDW	< -0.25
RVGSPRSLIGV	< -0.25
RVGSRHRPL	< -0.25
RVGSSKATEASRNGTSC	< -0.25
RVGWDSSPGALTVYSHRWTP	< -0.25
RVHKSREGRINRILDCPQDA	< -0.25
RVI	-0.247 ± 0.0037
RVIAKLRLDNP	< -0.25
RVIEFGPSRR	< -0.25
RVIGPKTRTVTTGWEIVTKH	< -0.25
RVKHLAQYQNIGLFLATVKA	< -0.25
RVKKTAAQNM	< -0.25
RVKMMSESWTSRILDV	-0.0139
RVL	< -0.25
RVLDTIIGDTTRDKTVH	< -0.25
RVLFREYPRVNACYPFT	< -0.25
RVLKTCLGRDRSSREDRDSV	< -0.25
RVLMSFLTLFRPAKT	< -0.25

The results go on.

Substance | growth estimate
RVLRPRPHLLRGD | < -0.25
RVLRRPRYPRGRSNPAVGSE | < -0.25
RVLSLCER | < -0.25
RVLSNTRCLTSRRCEDSYYG | < -0.25
RVMTLRLMLSHFRALFNQER | < -0.25
RVNCRSES | < -0.25
RVNIRAYHRFLSVGSYVHRA | < -0.25
RVNIYLCDRLWEFTLGMLLA | < -0.25
RVNY | < -0.25
RVPENCSIAVNEASSRLDVE | < -0.25
RVPLGHIVVRFLTGSCKGRW | < -0.25
RVPQAGARLSPGPCVYWGRC | < -0.25
RVPSFRYGRMRPSRPRDGSP | < -0.25
RVQAMCRGSCIVPALHCPPF | < -0.25
RVQDEGPVIRSASADSASRG | < -0.25
RVRAGHEIGSDSGH | < -0.25
RVRGRLGVWEGTVLTSWF | < -0.25
RVRKLLKCCPASDFGRTFRG | < -0.25
RVRSGLT | -0.239
RVSCFAEDELVEEPMHPATC | < -0.25
RVSTFIGVMATYGVNRTLRA | < -0.25
RVSTGTV | < -0.25
